PubChem BioAssay AID1259424, University of Nebraska Medical Center, 2018
Aim: 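Rank knockdowns across the genome by resemblance to the KSR1 depletion profile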 (primary screen). System: human HCT116 colon cancer cells. Knock-down reagent: siRNA pool against human genes, 50 nM. Detection: 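Six signature mRNAs by branched-DNA multiplex assay, scaled to two housekeeping genes and non-targeting median, log2; matched to mean KSR1 knockdown profile by Pearson correlation and euclidean distance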. Scale: mean correlation with KSR1 profile: higher = expression change more like KSR1 knockdown; mean distance from KSR1 profile: higher = expression change less like KSR1 knockdown.
This is a random part of about 14,000 reagents. 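Higher correlation or smaller distance means closer resemblance to KSR1 loss; control wells, including KSR1 knockdowns, recur on many plates.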 Further read-outs or replicates are left out here. Not given: the time to read-out.

CDC42SE2 (GeneID 56990)
- mean correlation with KSR1 profile: 0.342
- mean distance from KSR1 profile: 2.07

CDH12 (GeneID 1010)
- mean correlation with KSR1 profile: 0.034
- mean distance from KSR1 profile: 1.89

MTIF2 (GeneID 4528)
- mean correlation with KSR1 profile: -0.138
- mean distance from KSR1 profile: 1.84

ITIH2 (GeneID 3698)
- mean correlation with KSR1 profile: 0.388
- mean distance from KSR1 profile: 1.46

PDE9A (GeneID 5152)
- mean correlation with KSR1 profile: 0.107
- mean distance from KSR1 profile: 1.37

POLR3GL (GeneID 84265)
- mean correlation with KSR1 profile: 0.724
- mean distance from KSR1 profile: 1.1

H4C1 (GeneID 8359)
- mean correlation with KSR1 profile: -0.643
- mean distance from KSR1 profile: 1.47

PRL (GeneID 5617)
- mean correlation with KSR1 profile: -0.567
- mean distance from KSR1 profile: 1.59

RASGRP4 (GeneID 115727)
- mean correlation with KSR1 profile: 0.00501
- mean distance from KSR1 profile: 3.12

TERF2 (GeneID 7014)
- mean correlation with KSR1 profile: 0.707
- mean distance from KSR1 profile: 1.25

RPL35A (GeneID 6165)
- mean correlation with KSR1 profile: -0.00665
- mean distance from KSR1 profile: 4.34

ZNF322 (GeneID 79692)
- mean correlation with KSR1 profile: 0.564
- mean distance from KSR1 profile: 3.34

TNRC18 (GeneID 84629)
- mean correlation with KSR1 profile: -0.771
- mean distance from KSR1 profile: 3.85

BRMS1 (GeneID 25855)
- mean correlation with KSR1 profile: -0.0404
- mean distance from KSR1 profile: 4.61

AP1G1 (GeneID 164)
- mean correlation with KSR1 profile: -0.434
- mean distance from KSR1 profile: 2.35

RPGRIP1L (GeneID 23322)
- mean correlation with KSR1 profile: 0.582
- mean distance from KSR1 profile: 1.38

KLHL11 (GeneID 55175)
- mean correlation with KSR1 profile: -0.797
- mean distance from KSR1 profile: 5.9

PABPC1 (GeneID 26986)
- mean correlation with KSR1 profile: -0.504
- mean distance from KSR1 profile: 4.36

VTI1B (GeneID 10490)
- mean correlation with KSR1 profile: -0.675
- mean distance from KSR1 profile: 3.58
